Results from PubChem BioAssay (EPA / NIEHS).
“And” between values parts separate entries of the source, which are not always exact repeats. Equal values may be shown once. The inconclusive results got no clear call from the source; some entries with a clear call stand among them for comparison. A potency beside an inconclusive call is a rough fit, not a confirmed value. Where a structure was tested more than once in an assay, its records may differ in their call. The source made the active and inactive calls. Rule for the calls: active = hit-call score of the fitted dose curve at least 0.9, where 1 is the maximum; inconclusive = response in the unintended direction; inactive = score below 0.9.

These compounds were tested on turtle Estrogen Receptor (ERa), gene 101933533 (assay: ATG_trERa_XSP2: Attagene TRANS-FACTORIAL Multi-Species (XSP2) HepG2 Assay for turtle Estrogen Receptor (ERa) (AID 2283812);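 note: actives raise reporter signal above DMSO so AC50 reflects agonist activity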).
Method: ATG_XSP2_multi-species_TRANS is a cell-based, multiplexed assay created by modifying the existing Attagene TRANS-FACTORIAL system to include a panel of nuclear receptors from some or all the following species: human (Homo sapiens), mouse (Mus musculus), frog (Xenopus laevis), zebrafish (Danio rerio), chicken (Gallus gallus), and turtle (Chrysemys picta). The ECOTOX-FACTORIAL format uses HepG2, a human liver cell line, with measurements taken at 24 hours after chemical dosing in a 24-well plate. Xsp2 included 3 nM 6-alpha-fluorotestosterone and 1.5 nM norgestrel to stimulate the androgen receptor.ATG_trERa_XSP2 is one of 29 assay components measured or calculated from the ATG_XSP2_multi-species_TRANS assay. It is designed to make measurements of mRNA induction, a form of inducible reporter, as detected with fluorescence intensity signals by Reverse transcription polymerase chain reaction (RT-PCR) and Capillary electrophoresis technology.The assay endpoint ATG_trERa_XSP2 was analyzed in the positive analysis fitting direction relative to DMSO as the negative control and baseline of activity. Using a type of inducible reporter, measures of mRNA for gain-of-signal activity can be used to understand the reporter gene at the transcription factor-level as they relate to the gene ER. Furthermore, this assay endpoint can be referred to as a primary readout, because this assay has produced multiple assay endpoints where this one serves a reporter gene function. To generalize the intended target to other relatable targets, this assay endpoint is annotated to the nuclear receptor intended target family, where the subfamily is steroidal.
Human liver HepG2 cells are transiently transfected with multiple reporter transcription units (MRTUs) in 6-well plates using FuGene 6 reagent (Roche; 3 ml FuGene/1 mg DNA). The MRTU constructs are regulated by a cis-regulating element (promoter). […] A major difference between the CIS and TRANS system is that in CIS activities of endogenous TFs are measured, whereas the TRANS assay evaluates changes in activities of exogenous, chimeric NR-Gal4 proteins. […] At the end of 24 hour incubation, total RNA was isolated using TriZol reagent (Invitrogen). The isolated RNA is then reverse-transcribed using oligo(dT) primer and Mo-MLV reverse transcriptase (Invitrogen) with DNAse I (Ambion) treatment for 30 min. The one-tenth of the produced cDNA was amplified by PCR using Taq DNA polymerase (Invitrogen) and two reporter sequence-specific primers. The PCR products were fluorescently labeled by primer extension with 6-arboxyfluorescein (6-FAM) 5'-labeled reporter sequence-specific primer (2 min at 95 C, 20 s at 68 C and 10 min at 72 C) and these products were digested with 5U of HpaI (New England Biolabs) for 2h at 37 C. The fragments were purified using Qiaquick PCR columns (Qiagen), analyzed on an ABI 3130xL genetic analyzer (Applied Biosystems) with peak positions identified by using a set of X-rhodamine (ROX)-labeled MapMarker1000 molecular weight standards (BioVentures). The raw capillary electrophoresis data was processed using Attagraph software (Attagene).

SMILES | AC50 | outcome
CC12CC1(C)C(=O)N(c1cc(Cl)cc(Cl)c1)C2=O (configuration not stated) | active: 100 µM | inactive
[Cl][Sn]([c]1ccccc1)([c]1ccccc1)[c]1ccccc1 | inconclusive: 0.256 µM | –
Oc1ccc(C(c2ccc(O)cc2)(C(F)(F)F)C(F)(F)F)cc1 | inconclusive: 60.5 µM | –
O=C1C2(Cl)C3(Cl)C4(Cl)C(Cl)(Cl)C5(Cl)C3(Cl)C1(Cl)C5(Cl)C24Cl (configuration not stated) | active: 0.514 µM | –
CCCN(CCOc1c(Cl)cc(Cl)cc1Cl)C(=O)n1ccnc1 | – | inactive
C#CCOS(=O)OC1CCCCC1Oc1ccc(C(C)(C)C)cc1 (configuration not stated) | – | inactive
CC(C)CCCCCCCOC(=O)c1ccccc1C(=O)OCCCCCCCC(C)C | inconclusive: 25.1 µM | –
CC(=O)c1cc2c(cc1C)C(C)(C)C(C)CC2(C)C (configuration not stated) | inconclusive: 100 µM | –
CC(O)(CS(=O)(=O)c1ccc(F)cc1)C(=O)Nc1ccc(C#N)c(C(F)(F)F)c1 (configuration not stated) | inconclusive: 167 µM | –
COP(=O)(OC)O/C(=C\Cl)c1cc(Cl)c(Cl)cc1Cl | active: 3.18 µM | –
CC(c1ccc(O)cc1)(c1ccc(O)cc1)c1ccc(O)cc1 | inconclusive: 1 µM | –
Clc1ccc(C(c2ccc(Cl)cc2)C(Cl)Cl)cc1 | active: 11.6 µM | –
CCCCNC(=O)OCC#CI | inconclusive: 49.9 µM | –
CCC[CH2][Sn]([Cl])([CH2]CCC)[CH2]CCC | inconclusive: 1.42 µM | –
Oc1c(I)cc(I)cc1I | inconclusive: 172 µM and inconclusive: 61 µM | –
CCOCN(C(=O)CCl)c1c(C)cccc1CC | inconclusive: 123 µM | –
CON(C)C(=O)Nc1ccc(Cl)c(Cl)c1 | inconclusive: 100 µM | –
O=c1oc2ccccc2c(O)c1C(CC(O)c1ccc(-c2ccc(Br)cc2)cc1)c1ccccc1 (configuration not stated) | inconclusive: 31.6 µM | –
CC1(C)CCC(=Cc2ccc(Cl)cc2)C1(O)Cn1cncn1 (configuration not stated) | – | inactive
Oc1ccc2ccc3cccc4ccc1c2c34 | active: 8.33 µM and active: 5.18 µM | –
CC1(C)CCC(Cc2ccc(Cl)cc2)C1(O)Cn1cncn1 (configuration not stated) | active: 5.11 µM | –

Looked up one by one from the entries so far, 2 records:
SMILES | AC50 | outcome
CCCN(CCOc1c(Cl)cc(Cl)cc1Cl)C(=O)n1ccnc1 | – | inactive
C#CCOS(=O)OC1CCCCC1Oc1ccc(C(C)(C)C)cc1 (configuration not stated) | – | inactive
